Laboratory results: PubChem BioAssay AID743454 (Peter MacCallum Cancer Centre, 2014)

Aim: 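Knock-downs lowering viability or raising caspase 3/7 activity in vorinostat-treated resistant cells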 (primary screen)
Cells: human HCT116-VR colon cancer cells, selected for vorinostat resistance
Reagents: siRNA pool against human genes, 40 nM siRNA pool
Time to read-out: vorinostat for 24 h, read-out about 72 h after transfection
Treatment: vorinostat at 2.5 µM final
Read-out: 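Cell viability by CellTiter-Fluor and caspase 3/7 activity by luminescence, each scaled to mock wells per plate, duplicates averaged, then robust z-scored over all plates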
Direction: viability robust z-score: higher = more viable cells than screen typical; caspase robust z-score: higher = more caspase 3/7 activity than screen typical
Call rule: 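Hits are knock-downs in viability class RV1/RV2 or caspase class CA1/CA2, excluding ones that killed cells in the no-drug cell-count arm; hits then retested with single siRNAs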
In all, the deposit lists about 18,000 reagents; this is a random part of them. 450 of all reagents (2.5%) count as active. 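Single biological run; no consistent viability z cut-off exists, so the class columns, not z-scores, define the calls.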

| target | PubChem SID | viability hit class | caspase hit class | viability robust z-score | caspase robust z-score | outcome |
| --- | --- | --- | --- | --- | --- | --- |
| SLX4IP (SLX4 interacting protein) | SID152146910 | no change | no change | -0.22 | -0.92 | inactive |
| EFCAB5 (EF-hand calcium binding domain 5) | SID135625021 | no change | no change | 0.18 | -0.45 | inactive |
| LYRM2 (LYR motif containing 2) | SID152149617 | no change | no change | 1 | 1.17 | inactive |
| OR10S1 (olfactory receptor family 10 subfamily S member 1) | SID152152987 | no change | no change | -0.5 | 3.08 | inactive |
| FZD10 (frizzled class receptor 10) | SID134310943 | no change | no change | 0.6 | -0.15 | inactive |
| SLTM (SAFB like transcription modulator) | SID152155606 | no change | no change | -0.2 | -0.53 | inactive |
| TMEM169 (transmembrane protein 169) | SID135623652 | no change | no change | -0.19 | 1.54 | inactive |
| ITGA4 (integrin subunit alpha 4) | SID152151904 | no change | no change | 0.02 | -0.85 | inactive |
| AGPAT4 (1-acylglycerol-3-phosphate O-acyltransferase 4) | SID152154310 | no change | no change | -0.82 | -1.18 | inactive |
| SLC25A47 | SID135621349 | no change | no change | 0.66 | 1.12 | inactive |
| CLEC2L (C-type lectin domain family 2 member L) | SID135625229 | no change | no change | 1.43 | -0.59 | inactive |
| DYRK4 (dual specificity tyrosine phosphorylation regulated kinase 4) | SID56478859 | no change | no change | 1.7 | 2.92 | inactive |
| VPS51 (VPS51 subunit of GARP complex) | SID134324348 | no change | no change | -1.54 | -0.31 | inactive |
| OR5L1 (olfactory receptor family 5 subfamily L member 1) | SID152149058 | no change | no change | -0.55 | 4.12 | inactive |
| NSD1 (nuclear receptor binding SET domain protein 1) | SID134312171 | no change | no change | 0.33 | -0.61 | inactive |
| ATP12A (ATPase H+/K+ transporting non-gastric alpha2 subunit) | SID152153456 | no change | no change | -1.71 | 2.62 | inactive |
| HDAC7 (histone deacetylase 7) | SID152156240 | no change | no change | -0.39 | -1.1 | inactive |
| UNC79 (unc-79 subunit of NALCN channel complex) | SID152151880 | no change | no change | -1.28 | 2.08 | inactive |
| DISC1 (DISC1 scaffold protein) | SID135623964 | no change | no change | -0.82 | 0.32 | inactive |
| DCBLD1 (discoidin, CUB and LCCL domain containing 1) | SID134321947 | no change | no change | 1.85 | -0.6 | inactive |
| PAQR7 (progestin and adipoQ receptor family member 7) | SID152150895 | no change | no change | -0.64 | 0.26 | inactive |
| PYROXD1 (pyridine nucleotide-disulphide oxidoreductase domain 1) | SID152148297 | no change | no change | 0.24 | -0.06 | inactive |
| CENPE (centromere protein E) | SID135620645 | no change | no change | -1.5 | 1.72 | inactive |
| HK1 (hexokinase 1) | SID56479165 | no change | no change | -0.49 | -0.57 | inactive |
| GPD1 (glycerol-3-phosphate dehydrogenase 1) | SID152155441 | no change | no change | 0.48 | 0.48 | inactive |
| SLC5A1 | SID135621415 | no change | no change | -0.49 | 0.64 | inactive |
| OR51S1 (olfactory receptor family 51 subfamily S member 1) | SID152150228 | no change | no change | -0.48 | 2.04 | inactive |
| ZNF567 (zinc finger protein 567) | SID134320441 | no change | no change | -0.58 | 0.84 | inactive |
| RFPL1 (ret finger protein like 1) | SID152149561 | no change | no change | -0.59 | -0.24 | inactive |
| ROCK2 (Rho associated coiled-coil containing protein kinase 2) | SID135620850 | no change | no change | -0.48 | 4.9 | inactive |
| MIPOL1 (mirror-image polydactyly 1) | SID152152195 | no change | no change | 0.46 | -0.35 | inactive |

Reformatted: 9 of the entries above.
target | PubChem SID | viability hit class | caspase hit class | viability robust z-score | caspase robust z-score | outcome
ATP12A (ATPase H+/K+ transporting non-gastric alpha2 subunit) | SID152153456 | no change | no change | -1.71 | 2.62 | inactive
HDAC7 (histone deacetylase 7) | SID152156240 | no change | no change | -0.39 | -1.1 | inactive
UNC79 (unc-79 subunit of NALCN channel complex) | SID152151880 | no change | no change | -1.28 | 2.08 | inactive
DISC1 (DISC1 scaffold protein) | SID135623964 | no change | no change | -0.82 | 0.32 | inactive
DCBLD1 (discoidin, CUB and LCCL domain containing 1) | SID134321947 | no change | no change | 1.85 | -0.6 | inactive
PAQR7 (progestin and adipoQ receptor family member 7) | SID152150895 | no change | no change | -0.64 | 0.26 | inactive
PYROXD1 (pyridine nucleotide-disulphide oxidoreductase domain 1) | SID152148297 | no change | no change | 0.24 | -0.06 | inactive
CENPE (centromere protein E) | SID135620645 | no change | no change | -1.5 | 1.72 | inactive
HK1 (hexokinase 1) | SID56479165 | no change | no change | -0.49 | -0.57 | inactive

More reagents follow.
| target | PubChem SID | viability hit class | caspase hit class | viability robust z-score | caspase robust z-score | outcome |
| --- | --- | --- | --- | --- | --- | --- |
| EFHD2 (EF-hand domain family member D2) | SID134320333 | no change | no change | -1.14 | 4.75 | inactive |
| GAP43 (growth associated protein 43) | SID56479250 | no change | no change | 0.6 | -0.74 | inactive |
| GRB2 (growth factor receptor bound protein 2) | SID134323025 | no change | no change | -0.68 | -0.81 | inactive |
| PKDREJ (polycystin family receptor for egg jelly) | SID134311709 | no change | no change | 0.32 | -0.47 | inactive |
| PA2G4 (proliferation-associated 2G4) | SID152152822 | no change | no change | -0.26 | -0.93 | inactive |
| ACAD8 (acyl-CoA dehydrogenase family member 8) | SID152155492 | no change | no change | 0.68 | -0.74 | inactive |
| CCDC89 (coiled-coil domain containing 89) | SID134319510 | no change | no change | -1.84 | 0.88 | inactive |
| DDB2 (damage specific DNA binding protein 2) | SID152155213 | no change | no change | 0.87 | -0.6 | inactive |
| RRP36 (ribosomal RNA processing 36) | SID152154840 | no change | no change | -0.88 | -1.27 | inactive |
| IL7 (interleukin 7) | SID134312929 | no change | no change | -0.05 | 0.15 | inactive |
| SYCP1 (synaptonemal complex protein 1) | SID134322980 | no change | no change | 1.02 | 1.52 | inactive |
| NPR2 (natriuretic peptide receptor 2) | SID152151652 | no change | no change | 0.1 | 0.76 | inactive |
| OR5K2 (olfactory receptor family 5 subfamily K member 2) | SID134329876 | no change | no change | 0.4 | 0.19 | inactive |
| COMMD10 (COMM domain containing 10) | SID134319781 | no change | no change | -1.03 | 2.34 | inactive |
| RBMY1B (RNA binding motif protein Y-linked family 1 member B) | SID134329961 | no change | no change | -0.04 | -0.94 | inactive |
| AADAC (arylacetamide deacetylase) | SID152147545 | no change | no change | -0.26 | 1.76 | inactive |
| LOC100288884 (retired record) | SID135625005 | no change | no change | -1.96 | 4.68 | inactive |
| BICD1 (BICD cargo adaptor 1) | SID152150691 | no change | no change | 0.14 | -0.08 | inactive |
| TBL1XR1 (TBL1X/Y related 1) | SID135622421 | no change | no change | -1.08 | 0.28 | inactive |
| SUCO (SUN domain containing ossification factor) | SID134322109 | no change | no change | 0.25 | -0.9 | inactive |
| NDUFS4 (NADH:ubiquinone oxidoreductase subunit S4) | SID134323380 | no change | no change | 0.08 | 1.42 | inactive |
| LRRTM1 (leucine rich repeat transmembrane neuronal 1) | SID135623507 | no change | no change | -0.41 | 0.12 | inactive |
| CLDND2 (claudin domain containing 2) | SID135622959 | no change | no change | 1.5 | 1.77 | inactive |
| RAD50 (RAD50 double strand break repair protein) | SID134310820 | no change | no change | 0.54 | 0.62 | inactive |
| SHC3 (SHC adaptor protein 3) | SID152155930 | no change | no change | -0.77 | -0.24 | inactive |
| MTUS1 (microtubule associated scaffold protein 1) | SID134312009 | no change | no change | 0.4 | -0.19 | inactive |
| EIF2AK2 (eukaryotic translation initiation factor 2 alpha kinase 2) | SID56478676 | no change | no change | 0.18 | -0.73 | inactive |
| CPT2 (carnitine palmitoyltransferase 2) | SID135621597 | no change | no change | -1.04 | 1.38 | inactive |
| ACLY (ATP citrate lyase) | SID134310674 | no change | no change | 0.83 | -0.6 | inactive |
| ERCC5 (ERCC excision repair 5, endonuclease) | SID152153347 | no change | no change | -0.45 | 0.06 | inactive |
| TCF23 (transcription factor 23) | SID135625227 | no change | no change | -2.23 | 0.85 | inactive |
| PRG3 (proteoglycan 3, pro eosinophil major basic protein 2) | SID152149924 | no change | no change | 0.69 | -0.32 | inactive |
| IL12RB2 (interleukin 12 receptor subunit beta 2) | SID134312867 | no change | no change | -0.1 | -0.24 | inactive |
| ZC4H2 (zinc finger C4H2-type containing) | SID134312148 | no change | no change | -0.06 | -0.38 | inactive |
| RBMY1J (RNA binding motif protein Y-linked family 1 member J) | SID134329958 | no change | no change | -0.97 | -0.52 | inactive |
| NCOA3 (nuclear receptor coactivator 3) | SID134310067 | no change | no change | 0.49 | -0.68 | inactive |
| SNAP25 (synaptosome associated protein 25) | SID134315736 | no change | no change | -0.45 | 0.5 | inactive |
| TPM3 (tropomyosin 3) | SID152152018 | no change | no change | 0.3 | -0.48 | inactive |
| SOAT1 (sterol O-acyltransferase 1) | SID152152390 | no change | no change | 0.48 | -0.78 | inactive |
| SAMD4B (sterile alpha motif domain containing 4B) | SID152152762 | no change | no change | -2.46 | 2.19 | inactive |
| TACR3 (tachykinin receptor 3) | SID134311165 | no change | no change | 0.48 | 0.34 | inactive |
| ZDHHC11 (zDHHC palmitoyltransferase 11) | SID135622746 | no change | no change | -0.3 | 1.11 | inactive |
